Data as given in the supplement of paper PMC4604168 (melanoma cell lines).
The list shows a part of the results. Repeats are few or missing, and single values can be far off.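 The apoptosis fraction was the count of cleaved-PARP antibody-stained nuclei relative to all DNA-stained nuclei, imaged in 1,536-well plates. Screening doses were set so most cells survived, and baseline and induced cleaved-PARP levels vary greatly across cell lines.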

The compounds below were run on SkMel30 (assay: cleaved PARP positive nuclei fraction relative to DMSO control; melanoma cells; higher = more apoptosis). Conditions: library dose: low library concentration; 72 h.

Row | Structure (SMILES) | cleaved PARP positive nuclei fraction [%]
1 | NC1(c2ccc(-c3nc4ccn5c(=O)[nH]nc5c4cc3-c3ccccc3)cc2)CCC1 + O=C(Oc1ccc([N+](=O)[O-])cc1)N1CCC(C(O)(c2ccc3c(c2)OCO3)c2ccc3c(c2)OCO3)CC1 [JZL184] (first compound 0.4 µM, partner dose 1 µM) | 67.7
2 | COc1ccc(C2=N[C@@H](c3ccc(Cl)cc3)[C@@H](c3ccc(Cl)cc3)N2C(=O)N2CCNC(=O)C2)c(OC(C)C)c1 [Nutlin-3] + C/C(O)=C(\C#N)C(=O)Nc1cc(Br)ccc1Br [LFM-A13] (first compound 0.1 µM, partner dose 2 µM) | 46.7
3 | O=C(/C=C/c1cccnc1)NCCCCC1CCN(C(=O)c2ccccc2)CC1 + Cc1cc(SCc2sc(-c3ccc(C(F)(F)F)c(F)c3)nc2C)ccc1OCC(=O)O [GW0742] (first compound 0.01 µM, partner dose 2 µM) | 104
4 | C[As](C)SC[C@H](NC(=O)CC[C@H](N)C(=O)O)C(=O)NCC(=O)O [Darinaparsin] + NC(=O)Nc1cc(-c2cccc(F)c2)sc1C(=O)N[C@H]1CCCNC1 [AZD7762] (first compound 0.4 µM, partner dose 0.02 µM) | 64.8
5 | C[As](C)SC[C@H](NC(=O)CC[C@H](N)C(=O)O)C(=O)NCC(=O)O [Darinaparsin] + C[C@@H]1CCN(C(=O)CC#N)C[C@@H]1N(C)c1ncnc2[nH]ccc12 [CP690550] (first compound 0.4 µM, partner dose 1 µM) | 138
